# Assay results taken from patent US20040014676A1, “SRC kinase inhibitors useful for treating osteoporosis” (priority 2001, published 2004).
# By UniProt entry, the sequences of proteins in these tests, tags left out.
# UniProt P12931, whole entry: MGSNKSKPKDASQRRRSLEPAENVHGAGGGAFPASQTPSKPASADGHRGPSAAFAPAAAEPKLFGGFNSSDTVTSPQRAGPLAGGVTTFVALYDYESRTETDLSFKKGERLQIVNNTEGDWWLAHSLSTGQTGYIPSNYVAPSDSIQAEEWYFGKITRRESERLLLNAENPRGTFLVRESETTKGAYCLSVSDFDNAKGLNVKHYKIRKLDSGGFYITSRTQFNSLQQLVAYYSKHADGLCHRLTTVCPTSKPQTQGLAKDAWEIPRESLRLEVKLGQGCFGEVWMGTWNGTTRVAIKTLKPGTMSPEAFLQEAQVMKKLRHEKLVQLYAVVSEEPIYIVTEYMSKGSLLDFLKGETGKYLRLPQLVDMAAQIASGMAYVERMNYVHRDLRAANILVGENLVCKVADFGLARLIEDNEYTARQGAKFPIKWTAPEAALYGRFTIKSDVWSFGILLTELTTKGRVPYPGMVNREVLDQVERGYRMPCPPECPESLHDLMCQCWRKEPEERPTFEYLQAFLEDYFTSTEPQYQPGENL
# Target: Src kinase (Homo sapiens, UniProt P12931)
# Assay: Phosphorylation assay of Src kinase inhibitors (radiometric, 96 well filter plate)
# Assay type: biochemical
# Conditions: duplicates, tested in the range of 400-0.098 µM; 10 µM peptide substrate (FIYGAFKKKKNH2), 5 µM unlabeled ATP, room temperature 30 min
# Protocol: The present invention provides novel compounds of Formulae I through XVIII discussed above. The following compounds which fall within Formulae I through XVIII are characterized by structure, IUPAC name and activity using phosphorylation assay for protein tyrosine Src kinase.
# Phosphorylation Assay of Src Kinase Inhibitors
# The activity of Src kinase was measured in a 96 well plate phosphorylation assay where the transfer of gamma phosphate from ATP to peptide substrate was measured radiometrically. The percentage inhibition and IC50 values were calculated from duplicates of samples tested in the range of 400-0.098 M (2 or 4 fold dilutions). Ki values were determined experimentally for some of the inhibitors. The phosphocellulose filter plates (Millipore catalog #MAPH NOB) were prewet prior to the phosphorylation assay by addition of 100 1 per well of 30 mM MES buffer+0.4 mg/ml BSA. After a 20-minute incubation, the buffer was removed completely via a Millipore vacuum manifold. The phosphorylation assay was then set up in the filter plates in a total volume per well of 60 1. […] Finally, the filter plate was placed into a Packard plate adapter (Packard catalog #600517B), 35 1 of Microscint-20 (Packard catalog #6013621) was added to each well, the plate was sealed (TopSeal A sealers; Packard catalog #6005185) and counted on a Packard TopCount.
smiles,measurement,value
N#Cc1ccc(C[C@H](N)C(=O)NCCCCOc2cc3ccccc3cc2C(=O)NCC(N)=O)cc1,IC50,3000 nM

# The match of structure and compound is tentative.
